The campaign covered roughly 330,000 compounds. About 230 (0.07%) were called active. Inconclusive results, whose numbers are uncertain, are shown with a selection of clear calls.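 The calls were made as follows: active = more than half of a compound's replicate wells show inhibition beyond 50%, single wells judged on their own value; inconclusive = some, but no more than half, of replicates pass 50% inhibition; inactive = no replicate passes 50% inhibition.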
These molecules were tested against Lysine-specific demethylase 4C (Homo sapiens) (UniProt Q9H3R0) (assay: inhibitors of GASC-1 histone demethylase, primary screen, biochemical, fluorescence, DELFIA europium (AID 2099;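 also: signal counts dimethyl H3K9 product captured on neutravidin plate; 0% = median of DMSO wells and 100% = 0.3 times that DMSO median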)). Conditions: GST-JMJD2C(1-420) H3K9me3 demethylation, at 2.35 µM, active compounds read high.

By UniProt entry, the sequences of proteins in these tests, tags left out. Residues count along the entry.
UniProt Q9H3R0, 1-420 limits assumed: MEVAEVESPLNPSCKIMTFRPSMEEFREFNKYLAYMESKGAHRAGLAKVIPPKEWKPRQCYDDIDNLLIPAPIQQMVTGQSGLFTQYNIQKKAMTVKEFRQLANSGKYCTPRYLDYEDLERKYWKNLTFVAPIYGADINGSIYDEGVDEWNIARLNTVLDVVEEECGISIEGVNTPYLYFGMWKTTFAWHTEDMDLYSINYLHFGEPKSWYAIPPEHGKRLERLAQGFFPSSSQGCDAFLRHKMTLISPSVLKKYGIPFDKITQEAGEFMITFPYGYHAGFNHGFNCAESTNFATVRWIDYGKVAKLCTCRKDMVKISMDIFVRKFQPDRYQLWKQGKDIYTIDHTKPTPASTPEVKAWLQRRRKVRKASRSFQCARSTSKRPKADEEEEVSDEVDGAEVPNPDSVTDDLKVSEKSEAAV

Compound | inhibition
COc1ccc2cc(Br)ccc2c1CC(=O)NC(C)C | inconclusive: -60.6%
COc1ccc(C=O)cc1Cn1cnc2c(cnn2C)c1=O | inconclusive: -56.9%
Cc1ccc(-n2ncc(C(=O)NCc3ccc4c(c3)OCO4)c2NC(=O)c2ccco2)cc1C | inconclusive: -131%
O=C(NNC(=O)C1CCCN(S(=O)(=O)c2cccc(F)c2)C1)C1CC1 (centres undefined) | inconclusive: -54.4%
COc1ccc(N(CC(=O)NCCc2ccc(S(N)(=O)=O)cc2)S(=O)(=O)c2c(C)noc2C)cc1 | inconclusive: -55%
CN(c1ccc(C(=O)O)cc1)S(=O)(=O)c1ccccc1 | active: 64.8%
COC(=O)/C=C/c1cnc[nH]1 | inconclusive: -129%
COc1ccc(-c2noc(CNS(=O)(=O)c3ccc(NC(C)=O)cc3)n2)cc1OC | inconclusive: -110%
CCC1CCCCN1S(=O)(=O)c1ccc(C(=O)N(CCCN(C)C)c2nc3cc4c(cc3s2)OCO4)cc1 (centres undefined) | inactive: -17.4%
Cc1cc(Br)ccc1NC(=O)CNC(=O)CSc1n[nH]c(N)n1 | inconclusive: -113%
C=CCn1c(C(C)NC(=O)CCC)nc2ccccc21 (centres undefined) | inactive: 2.7%
CSc1sc2ccccc2[n+]1CCCS(=O)(=O)[O-] | inconclusive: -143%
O=C1CC(NCCC2=CCCCC2)C(=O)N1c1cccc(Cl)c1Cl (centres undefined) | inconclusive: -62.7%
Cc1c(NC(=O)c2cccc(S(=O)(=O)N3CCOCC3)c2)c(=O)n(-c2ccccc2)n1C | inconclusive: -153%
O=C(COc1ccc([N+](=O)[O-])cc1)Nc1ccc(N2CCN(C(=O)c3ccco3)CC2)cc1 | inconclusive: -59.6%
CCOC(=O)C1CCN(C(=O)c2ccccc2NS(=O)(=O)c2ccc(F)c(F)c2)CC1 | inconclusive: -29.6%
CC(C(=O)Nc1sc2c(c1C#N)CCCCC2)N1C(=O)c2ccccc2C1=O (centres undefined) | inactive: 14.9%
COC(=O)C1(C)NCCc2c1[nH]c1ccccc21 (centres undefined) | inconclusive: -452%
COc1ccc(-n2c(C)c(C)c3c(NCCO)ncnc32)cc1 | inactive: 12.6%
CCOc1ccccc1C(=O)Nc1ccccc1-c1ccccc1 | inactive: 2.13%
CCOc1ccc(CCNC(=O)c2cccc(S(=O)(=O)N3CCN(C(C)=O)CC3)c2)cc1OCC | inconclusive: -73%
O=C(NCC(c1ccco1)N1CCc2ccccc2C1)C(=O)Nc1ccccc1 (centres undefined) | inconclusive: -119%

Part of the list above, as comma-separated lines.
Compound,inhibition
O=C(NNC(=O)C1CCCN(S(=O)(=O)c2cccc(F)c2)C1)C1CC1 (centres undefined),inconclusive: -54.4%
COc1ccc(N(CC(=O)NCCc2ccc(S(N)(=O)=O)cc2)S(=O)(=O)c2c(C)noc2C)cc1,inconclusive: -55%
COC(=O)/C=C/c1cnc[nH]1,inconclusive: -129%
COc1ccc(-c2noc(CNS(=O)(=O)c3ccc(NC(C)=O)cc3)n2)cc1OC,inconclusive: -110%
CCC1CCCCN1S(=O)(=O)c1ccc(C(=O)N(CCCN(C)C)c2nc3cc4c(cc3s2)OCO4)cc1 (centres undefined),inactive: -17.4%
Cc1cc(Br)ccc1NC(=O)CNC(=O)CSc1n[nH]c(N)n1,inconclusive: -113%
Cc1c(NC(=O)c2cccc(S(=O)(=O)N3CCOCC3)c2)c(=O)n(-c2ccccc2)n1C,inconclusive: -153%
CCOC(=O)C1CCN(C(=O)c2ccccc2NS(=O)(=O)c2ccc(F)c(F)c2)CC1,inconclusive: -29.6%
CC(C(=O)Nc1sc2c(c1C#N)CCCCC2)N1C(=O)c2ccccc2C1=O (centres undefined),inactive: 14.9%
COC(=O)C1(C)NCCc2c1[nH]c1ccccc21 (centres undefined),inconclusive: -452%
COc1ccc(-n2c(C)c(C)c3c(NCCO)ncnc32)cc1,inactive: 12.6%
CCOc1ccc(CCNC(=O)c2cccc(S(=O)(=O)N3CCN(C(C)=O)CC3)c2)cc1OCC,inconclusive: -73%
O=C(NCC(c1ccco1)N1CCc2ccccc2C1)C(=O)Nc1ccccc1 (centres undefined),inconclusive: -119%

(listing goes on)

Compound | inhibition
CCOC(=O)N1CCN(CC(=O)N2c3ccccc3CC2C)CC1 (centres undefined) | inconclusive: -66%
Cc1ccc(C(=O)N2CCN(c3cccc(Cl)c3)CC2)cc1C | inactive: 2.81%
COc1cc(C(=O)NCCCCCC(=O)O)cc(OC)c1OC | inconclusive: -53.6%
COc1ccccc1C(=O)NCC(C)(C)CN=C1NS(=O)(=O)c2ccccc21 | inactive: -8.67%
CCc1ccc(OCC2c3cc(OC)c(OC)cc3CCN2C(=S)NCCOC)cc1 (centres undefined) | inactive: -1.65%
COc1ccccc1C(CNc1ccc(S(=O)(=O)N2CCCC2)cc1[N+](=O)[O-])N(C)C (centres undefined) | inconclusive: -52.1%
CCOCCc1nn2c(=O)cc(CSCC(=O)Nc3cccc(C)c3C)nc2s1 | inconclusive: -52.7%
O=C(c1ccco1)N1CCN(c2ncnc3c2[nH]c2ccccc23)CC1 | inactive: -2.81%
CCOC(=O)N1CCN(S(=O)(=O)c2ccc(C(=O)N(CCCN(C)C)c3nc4cc(OC)ccc4s3)cc2)CC1 | inconclusive: -141%
CCN(CC)C(=O)C1CC(=O)OC12CCCCC2 (centres undefined) | inconclusive: -84%
COc1ccc2ccc(=O)oc2c1CC=C(C)C | inconclusive: -212%
CCC1CCCCN1CCCNC(=O)c1cn(CC)c2ccc(S(=O)(=O)N(C)C3CCCCC3)cc2c1=O (centres undefined) | inconclusive: -69.5%
COc1ccc(/C=C2\SC(=O)N(CCNC(=O)C3CSC4(C)CCC(=O)N34)C2=O)cc1 (centres undefined) | inconclusive: -61%
CCOc1ccc(NC(=O)c2sc3nc(N4CCOCC4)c4c(c3c2N)CCCC4)cc1 | inconclusive: -143%
Fc1ccc(Br)cc1C1C=C(c2ccc(Br)cc2)Nc2ncnn21 (centres undefined) | inconclusive: -96%
CCCCCC#CCC#CCC#CCC#CCCCC(=O)O | inconclusive: -59.3%
CCNC(=O)CC1C(=O)N(c2cccc(C)c2)C(=O)N1CCC(C)C (centres undefined) | inactive: -5.17%
C=CCn1c(=N)c(C(=O)NCCCOC)cc2c(=O)n3cc(C)ccc3nc21 | inconclusive: -61.4%
Cc1noc(C)c1-c1nc(CS(=O)(=O)c2ccccc2)no1 | inconclusive: -72.6%
Cc1cc(C)c2nc(N(CCCN(C)C)C(=O)c3ccc4c(c3)OCCO4)sc2c1 | inconclusive: -68.1%
O=C(CCCCCN1C(=O)c2ccccc2C1=O)Oc1ccc2c3c(c(=O)oc2c1)CCC3 | inactive: 5.81%
Cc1ccc(NC(=O)/C=C/c2cccc([N+](=O)[O-])c2)nc1 | inconclusive: -84%
